Article PMC6220109
No constants are given. Whether binding was seen depends on the method and setting. Some results given as binding are weak or reduced against the parent protein; the word gives no strength. For part of these data: Sequences can lack the tags named with a protein.

T1: RCC region of PfRCC-PIP (AA 1-399) (pGBKT7 two-hybrid construct) (P. falciparum) (UniProt Q8I2V4)
T1 sequence: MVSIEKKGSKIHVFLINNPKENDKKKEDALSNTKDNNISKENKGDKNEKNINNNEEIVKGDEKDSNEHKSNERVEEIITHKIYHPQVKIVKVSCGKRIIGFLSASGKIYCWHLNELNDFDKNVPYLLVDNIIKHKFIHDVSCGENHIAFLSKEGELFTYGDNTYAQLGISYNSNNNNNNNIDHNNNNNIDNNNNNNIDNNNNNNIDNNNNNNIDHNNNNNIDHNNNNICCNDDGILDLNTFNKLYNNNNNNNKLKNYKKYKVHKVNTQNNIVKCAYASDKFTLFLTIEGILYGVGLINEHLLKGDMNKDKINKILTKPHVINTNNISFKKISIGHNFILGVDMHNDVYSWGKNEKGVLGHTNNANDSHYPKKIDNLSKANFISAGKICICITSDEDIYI

T2: PfCDPK7-GST (AA 994-1291) (P. falciparum) (UniProt Q8IID2)
T2 sequence: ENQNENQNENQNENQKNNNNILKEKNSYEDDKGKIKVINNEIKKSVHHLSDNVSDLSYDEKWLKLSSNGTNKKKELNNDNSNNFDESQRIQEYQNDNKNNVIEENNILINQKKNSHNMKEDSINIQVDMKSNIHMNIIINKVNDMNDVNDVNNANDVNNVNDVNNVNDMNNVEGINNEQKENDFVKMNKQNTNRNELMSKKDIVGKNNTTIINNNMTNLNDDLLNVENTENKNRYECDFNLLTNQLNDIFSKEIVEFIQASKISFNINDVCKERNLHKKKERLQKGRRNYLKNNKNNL

B1: PfCDPK7 fragment (AA 994-1291) (pGADT7 two-hybrid clone) (domain or fragment, UniProt Q8IID2 994-1291)
chain: T2 sequence
B2: His-tagged recombinant RCC region of PfRCC-PIP (AA 1-399) (domain or fragment, UniProt Q8I2V4 1-399)
chain: T1 sequence

Columns and labels:
[1] = target: T1, RCC region of PfRCC-PIP (AA 1-399) (pGBKT7 two-hybrid construct) (P. falciparum); assay: two-hybrid; screen of a P. falciparum cDNA library (GAL4-AD) with the RCC region (AA 1-399) in pGBKT7 as bait
[2] = target: T1, RCC region of PfRCC-PIP (AA 1-399) (pGBKT7 two-hybrid construct) (P. falciparum); assay: two-hybrid; mating of Y187 (pGBKT7 constructs) with Y2HGold (pGADT7 constructs); diploids checked on Ddo, interactions on Tdo (low stringency) and Qdo (high stringency) medium
[3] = target: T2, PfCDPK7-GST (AA 994-1291) (P. falciparum); assay: pull-down; GST, or PfCDPK7-GST bound to glutathione agarose beads, incubated with 2 μg His-tagged RCC region, BSA and binding buffer; blot with anti-His; both purified

Binder | binding [1] | binding [2] | binding [3]
B1 | binds | binds | –
B2 | – | – | binds
